Results are given in words; binding and its absence hold for the method and conditions named. Some binding calls cover weakened binding; strength is not graded here.
Target: ErbB2 (UniProt P04626)
Test: MRD identification, Example 48

binding, binds:
WSGWCEYELRWDFCSGHI [EGB641]
WSGWCEYNGYWDYCTGTI [EGB622]
WSGWCETSSGWHQCSGII [EGB593]
WSGWCEGEHKWSFCSGHL [EGB597]
WSGWCYAPTGWHHCVGTI [EGB638]
PDSWCHTLYWHLQHCLSQE [EGB640]
WSGWCEGELQWYFCSGHL [EGB596]
WSGWCETSEGWHSCYGSI [EGB634]
WSGWCERVSGWNYCHGTI [EGB636]
WSGWCETSVGWHKCSGTI [EGB618]
WSGWCETSKGWHFCSGTI [EGB620]
WSGWCEGELQWYFCSGKI [EGB606]
WSGWCKTGKKWHHCGGTI [EGB592]
WSGWCETGKYWHYCSGTI [EGB623]
WSGWCEGQLQWFFCSGQI [EGB614]
WSGWCETDRGWHDCHGTI [EGB604]
WSGWCETGTGWYHCGGTI [EGB639]
WSGWCEGIGAWHFCKGII [EGB655]
ADSWCHTLYWNLRHCEIQE [EGB601]
WSGWCFATSGWHSCRGTA [EGB612]
YEEHCRLFPADWICSLLQ [EGB599]
ANSWCHTLYWDLMYCVWQE [EGB628]
PESWCHTLYWNLQHCLSQE [EGB607]
YEEHCALFPTDWICTLH [EGB654]
WSGWCENNDGWHHCHGSI [EGB658]
WSGWCETPGHWYQCRGSI [EGB600]
WSGWCEAIDMWYQCHGPI [EGB646]
WSGWCEGALGWSSCSGHG [EGB653]
WSGWCFTGDLWHACTGII [EGB647]
WSGWCETVNGWHQCTGTI [EGB642]
WSGWCERSWGWEQCRGTI [EGB615]
WSGWCETPVGWEQCTGTI [EGB651]
WSGWCETKFGWNYCKGSI [EGB611]
WSGWCEGELQWYYCSGKI [EGB648]
WSGWCEGKLHWYFCSGHM [EGB652]
WSGWCLTNGVWHGCRGII [EGB644]
WSGWCEGKEKWHHCNGSI [EGB633]
WSGWCQTGMRWHQCYGTI [EGB629]
WSGWCEYEEKWAFCSGYI [EGB616]
WSGFCLTEESWHHCTGPI [EGB645]
WSGWCETKDHWHACNGII [EGB605]
WSGWCEGKHGWYSCRGTI [EGB631]
WSGWCETLSGWHQCHGVI [EGB632]
WSGWCETSGGWHYCKGTI [EGB609]
WSGWCEEKGQWVSCGGSL [EGB595]
WSGWCNSGGGWHQCRGTI [EGB602]
WSGWCEGQTKWYFCSGQI [EGB626]
WSGWCLFDSKWDYCQGNI [EGB627]
WSGWCESNDGWYQCKGDI [EGB656]
WSGWCLTDNKWHSCIGTI [EGB603]
WSGWCEGEFQWYFCSGQF [EGB649]
WSGWCLTKNSWDFCSGTI [EGB643]
WSGWCLNELGWQQCFGTI [EGB635]
WSGWCRIETGWDFCSGTI [EGB619]
WSGWCESSHGWHGCKGII [EGB621]
WSGWCETDQGWHHCWGTI [EGB610]
WSGWCETLNGWYGCHGTM [EGB657]
WSGWCEGKHQWYFCSGNL [EGB624]
WSGWCETNGKWDFCQGTI [EGB650]
WSGWCETGNGWDRCWGNI [EGB613]
WSGYCEGELQWYFCTGHL [EGB617]
WSGWCESDKGWYQCRGTI [EGB598]
WSGWCESNGTWHGCKGTI [EGB630]
WSGWCETELGWHQCRGTI [EGB625]
